Experiment [1] in a line: qHTS assay to identify small molecule agonists of the constitutive androstane receptor (CAR) signaling pathway - cell viability counter screen (AID 1224836). Further: nearly all actives have a fitted effect of over 45% in size. The note with it: HepG2-CYP2B6-hCAR viability, CellTiter-Fluor, 23 h, PK11195 added to every well. Put shortly:
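Fluorescence from CellTiter-Fluor indicates live cells after 23 h exposure. The human hepatoma line expresses hCAR and a CYP2B6-2.2kb reporter. Incubation medium contains 0.75 uM PK11195 (final).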
(In qHTS, concentration-response curves come from the screen itself.)

Sequences of proteins named here, by UniProt entry; tags and fusion partners are left off. A change or cut given only in a name is not applied to a line headed by its entry.
UniProt Q14994: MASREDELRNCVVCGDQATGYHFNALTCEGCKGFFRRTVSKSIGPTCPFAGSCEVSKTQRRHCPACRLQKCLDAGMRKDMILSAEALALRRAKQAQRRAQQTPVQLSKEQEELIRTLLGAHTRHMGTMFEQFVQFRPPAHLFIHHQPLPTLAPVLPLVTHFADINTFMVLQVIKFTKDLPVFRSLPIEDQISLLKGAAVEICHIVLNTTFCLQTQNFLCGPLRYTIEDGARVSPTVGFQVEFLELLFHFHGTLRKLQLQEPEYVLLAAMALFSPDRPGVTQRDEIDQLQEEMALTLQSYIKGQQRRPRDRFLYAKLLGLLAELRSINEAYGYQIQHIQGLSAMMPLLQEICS

Experiment [2] is described as follows: qHTS assay to identify small molecule antagonists of the constitutive androstane receptor (CAR) signaling pathway - cell viability counter screen (AID 1224837). Further: nearly all actives have a fitted effect of over 45% in size. The note with it: HepG2-CYP2B6-hCAR viability, CellTiter-Fluor, 23 h, co-treated with 50 nM CITCO. Put shortly: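 HepG2 cells stably carrying hCAR and CYP2B6-2.2kb reporter, stimulated with 50 nM CITCO and compounds at 15 concentrations for 23 h at 37 C. Viability measured by CellTiter-Fluor fluorescence.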

The target of experiment [3] is Nuclear receptor subfamily 1 group I member 3 (Homo sapiens) (UniProt Q14994). Nature of the experiment: qHTS assay to identify small molecule agonists of the constitutive androstane receptor (CAR) signaling pathway (AID 1224839). Further: nearly all actives have a fitted effect of over 15% in size. To be noted: HepG2 hCAR CYP2B6-luciferase, agonist mode, 24 h; at 92.4 µM (top of the series). Put shortly: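 Stable hCAR/CYP2B6-2.2kb HepG2 line in DMEM with 10% FBS; compounds (15 concentrations) and 0.75 uM PK11195 final, 24 h at 37 C/5% CO2, then ONE-Glo luminescence after 30 min.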

Experiment [4] can be described thus: qHTS assay to identify small molecule agonists of the hypoxia (HIF-1) signaling pathway - cell viability counter screen (AID 1224844; calls by dose curve; further: nearly all actives have a fitted effect of over 50% in size). To be noted: HRE-bla ME-180 viability, CellTiter-Glo luminescence, 17 h. Put shortly:
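HRE-bla ME-180 cells, 2,000/well in 0.5% dialyzed FBS medium, treated 17 h at 37C with compounds. Viability read in the same wells as the bla reporter, by CellTiter-Glo luminescence after 30 min at room temperature.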

A short description of experiment [5]: qHTS assay to identify small molecule agonists of H2AX - cell viability counter screen (AID 1224847; calls by dose curve; further: nearly all actives have a fitted effect of over 30% in size; further: potency means the concentration at half of the fitted maximal effect; on activity change, negative = cytotoxicity: top concentration of the series differs between compounds). The note with it: CHO-K1 viability, CellTiter-Glo luminescence, 3 h; series mostly up to 154 µM. Put shortly: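 Viability of CHO-K1 (wild type) cells after 3 hr compound exposure was measured by CellTiter-Glo luminescence.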
Experiment [6] is described as follows: qHTS RealTime-Glo MT Cell Viability Assay in HepG2 cells - 24 hour (AID 1224867). Further: nearly all actives have a fitted effect of over 50% in size. The note with it: RealTime-Glo luminescence. Put shortly:
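Tox21 10K library screened in qHTS format on HepG2 cells carrying RealTime-Glo reagents. Compounds were added after a 5 h preincubation, and the luminescent signal from continuous culture was measured repeatedly during 40 h treatment.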

Experiment [7] can be described thus: qHTS RealTime-Glo MT Cell Viability Assay in HEK293 cells - 32 hour (AID 1224868). Further: top concentration of the series differs between compounds; nearly all actives have a fitted effect of over 50% in size. To be noted: RealTime-Glo luminescence. Put shortly:
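Luminescence generated by NanoLuc from substrate produced by living HEK293 cells served as the viability signal. Each value reflects the reading at its stated time point during continuous 40 h compound exposure at 37 C.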

Experiment [8] can be described thus: qHTS assay to identify small molecule antagonists of the retinoic acid receptor (RAR) signaling pathway (AID 1159552; further: nearly all actives have a fitted effect of over 50% in size). The note with it: C3RL4 RARE luciferase reporter, retinol-stimulated, 6 h; at 92.4 µM (top of the series). Put shortly: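 Overnight-plated C3RL4 reporter cells get compound, then retinol to 1 uM final; plates sit 6 hr at 37 C, 5% CO2. A luciferase reagent is added and light output recorded after 30 min at room temperature.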

The nature of experiment [9]: qHTS assay to identify small molecule agonists of the retinoic acid receptor (RAR) signaling pathway (AID 1159553). The note with it: C3RL4 RARE luciferase reporter, agonist, 6 h; at 94.8 µM (top of the series). An outline of the steps:
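C3RL4 RARE-luciferase cells were seeded at 1,000/well and grown overnight at 37 C, then exposed to compounds for 6 hr at 37 C, 5% CO2. Luciferase reagent was added and luminescence was read after 30 min at room temperature.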

For experiment [10], the target named is Nuclear receptor subfamily 1 group I member 3 (Homo sapiens) (UniProt Q14994). Nature of the experiment: qHTS assay to identify small molecule antagonists of the constitutive androstane receptor (CAR) signaling pathway (AID 1224838). Further: nearly all actives have a fitted effect of over 40% in size. To be noted: HepG2-CYP2B6-hCAR luciferase, CITCO-stimulated, 24 h; at 92.4 µM (top of the series). An outline of the steps: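 HepG2 cells stably carrying hCAR and a CYP2B6-2.2kb luciferase reporter, seeded 4 hrs before compound (15 concentrations). Stimulated with 50 nM CITCO for 24 hr at 37 C. ONE-Glo luminescence read after 30 min at room temperature.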

Values joined by “and” are separate entries in the source; they are usually repeats but may differ in a detail not shown here. Equal entries are not always repeated. For some assays here: Most of the hits are listed elsewhere, so they are rarer here than in the full data. Records with an inconclusive call do not appear. The list shows a part of the results, in another mix than the full data. Where a structure was tested more than once in an assay, its records may differ in their call. Active and inactive are the calls of the source. Unless noted, the call rests on the fitted dose curve; in most records, active means well fitted curve in the direction sought with a large enough effect in the repeat runs; inconclusive means weak or mixed curves; inactive means no such curve, though single readings can be large; an effect the other way counts as inactive or inconclusive.

Here are results for five molecules from PubChem BioAssay (Tox21).
On the % scale 0 is the no-effect control and ±100 the full control effect.

Consider `Oc1c(Cl)cc(Cl)cc1Cl`, for which, in [1] (at 92.4 µM (top of the series)), the viability change, negative = cytotoxic is inactive: 5.44% and inactive: 18.3%. Besides, the activity change, negative = cytotoxicity in [2] (at 92.4 µM (top of the series)) was inactive: 6.93% and inactive: 7.38%; in experiment [4] (at 76.8 µM (top of the series)) it was inactive: -2.88% and inactive: -2.58%; in experiment [6] (at 76.8 µM (top of the series)) it was inactive: -2.98% and inactive: 1.35%. In addition, the activation in experiment [3] was inactive: 10.4%. Besides, the Potency entry in experiment [5] is “inactive”. For the same molecule, in experiment [7] (at 76.8 µM (top of the series)), the activity change, negative = cytotoxic is inactive: -2.24% and inactive: -0.325%.
In the case of `O=[N+]([O-])c1ccccc1Cl`, the viability change, negative = cytotoxic in experiment [1] (at 92.4 µM (top of the series)) was inactive: -1.56%. Moreover, the activity change, negative = cytotoxicity was inactive: 1.88% in experiment [2] (at 92.4 µM (top of the series)), inactive: -8.7% in [4] (at 76.8 µM (top of the series)) and inactive: -1% in [6] (at 76.8 µM (top of the series)). In addition, the activation in experiment [3] was inactive: 0.239%. The Potency result in experiment [5] was “inactive”. For the same molecule, the activity change, negative = cytotoxic in [7] (at 76.8 µM (top of the series)) was inactive: 4.1%.
As for `Cc1ccc(O)cc1C`, the activity, negative = inhibition in experiment [8] is inactive: 28% and inactive: -2.79%; in [10] it was inactive: 2.97% and inactive: 5.93%. Moreover, the activation in [9] is inactive: -0.417%; in experiment [3], inactive: -0.787% and inactive: -1.05%. For the same molecule, in experiment [1] (at 92.4 µM (top of the series)), the viability change, negative = cytotoxic was inactive: 2.5% and inactive: 0.635%. Also, the activity change, negative = cytotoxicity is inactive: 2.51% and inactive: 6.83% in experiment [2] (at 92.4 µM (top of the series)); inactive: 5.88% in experiment [4] (at 76.8 µM (top of the series)); inactive: -0.688% and inactive: 4.51% in experiment [6] (at 76.8 µM (top of the series)). In addition, in [5], the Potency entry was “inactive”. In [7] (at 76.8 µM (top of the series)), the activity change, negative = cytotoxic was inactive: 1.51% and inactive: 14.5%.
As to `Cc1ccc2ccccc2c1C`, the activity, negative = inhibition was inactive: 38.5% and inactive: 122% in experiment [8]; inactive: 38% and inactive: 10.5% in experiment [10]. For the same molecule, the activation in [9] is inactive: -0.966%. Moreover, in [1] (at 92.4 µM (top of the series)), the viability change, negative = cytotoxic is inactive: -0.136% and inactive: -1.39%. Moreover, the activity change, negative = cytotoxicity in experiment [2] (at 92.4 µM (top of the series)) was inactive: 4.54% and inactive: 4.51%; in [4] (at 76.8 µM (top of the series)), inactive: -7.9% and inactive: -2.87%; in experiment [6] (at 76.8 µM (top of the series)) it was inactive: 1.35% and inactive: 0.979%. The Potency entry in experiment [5] was “inactive”. Besides, in experiment [7] (at 76.8 µM (top of the series)), the activity change, negative = cytotoxic was inactive: 1.74% and inactive: 12.2%.
For `CC(C)(C)c1ccc(O)cc1`, the viability change, negative = cytotoxic in experiment [1] (at 42.5 µM (top of the series)) was inactive: 9.94%; in [1] (at 92.4 µM (top of the series)) it was inactive: -3.85% and inactive: -9.54%. Further, the activity change, negative = cytotoxicity in experiment [2] (at 42.5 µM (top of the series)) is inactive: 8.72%; in experiment [2] (at 92.4 µM (top of the series)), inactive: -5.26% and inactive: 0.307%; in experiment [4] (at 35.3 µM (top of the series)) it was inactive: -2.14%; in experiment [4] (at 76.8 µM (top of the series)) it was inactive: -16.4% and inactive: 1.26%; in [6] (at 35.3 µM (top of the series)) it was inactive: -7.91%; in [6] (at 76.8 µM (top of the series)) it was inactive: -3.9% and inactive: -10.3%. For the same molecule, in experiment [5], the Potency was active: 101 µM and inactive. In addition, the activity change, negative = cytotoxic is inactive: -7.41% in [7] (at 35.3 µM (top of the series)); inactive: -4.49% and inactive: -28.9% in experiment [7] (at 76.8 µM (top of the series)).
